Source: publication PMC2702331
Read-outs that look alike come from different tables or passages of the source. These are yes or no findings as the source states them, for the method shown. Binding seen in cells or lysates may run through a third protein. Some entries that bind do so weakly or less than the wild type.

By UniProt entry, the sequences of proteins in these tests, tags left out.
UniProt P04608: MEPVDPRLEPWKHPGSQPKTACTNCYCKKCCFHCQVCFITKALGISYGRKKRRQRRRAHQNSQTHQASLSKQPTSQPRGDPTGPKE
UniProt Q13547: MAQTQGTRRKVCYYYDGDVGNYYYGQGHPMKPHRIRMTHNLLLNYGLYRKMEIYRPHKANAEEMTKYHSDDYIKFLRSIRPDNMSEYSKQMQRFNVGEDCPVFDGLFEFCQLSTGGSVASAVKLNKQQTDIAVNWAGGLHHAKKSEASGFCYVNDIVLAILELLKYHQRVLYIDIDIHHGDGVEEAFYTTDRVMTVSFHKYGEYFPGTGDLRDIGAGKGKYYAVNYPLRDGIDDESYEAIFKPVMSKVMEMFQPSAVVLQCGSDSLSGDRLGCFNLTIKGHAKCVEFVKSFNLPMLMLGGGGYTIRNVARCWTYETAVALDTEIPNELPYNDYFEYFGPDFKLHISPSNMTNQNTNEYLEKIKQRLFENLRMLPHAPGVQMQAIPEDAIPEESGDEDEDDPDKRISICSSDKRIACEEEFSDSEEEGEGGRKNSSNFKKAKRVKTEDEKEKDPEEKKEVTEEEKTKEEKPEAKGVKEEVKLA
UniProt O96019: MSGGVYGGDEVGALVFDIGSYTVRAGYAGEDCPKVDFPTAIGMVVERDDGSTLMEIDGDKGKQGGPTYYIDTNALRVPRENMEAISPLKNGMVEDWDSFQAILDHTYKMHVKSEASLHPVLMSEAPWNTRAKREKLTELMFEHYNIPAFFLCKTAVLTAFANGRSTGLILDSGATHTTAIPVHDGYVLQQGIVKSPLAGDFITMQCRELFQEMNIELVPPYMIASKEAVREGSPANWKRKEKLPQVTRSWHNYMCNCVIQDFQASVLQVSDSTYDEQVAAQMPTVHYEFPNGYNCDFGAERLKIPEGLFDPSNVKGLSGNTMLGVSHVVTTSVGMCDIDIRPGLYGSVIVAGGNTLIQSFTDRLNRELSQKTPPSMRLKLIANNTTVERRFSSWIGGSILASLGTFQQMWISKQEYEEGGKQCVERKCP
UniProt Q09028: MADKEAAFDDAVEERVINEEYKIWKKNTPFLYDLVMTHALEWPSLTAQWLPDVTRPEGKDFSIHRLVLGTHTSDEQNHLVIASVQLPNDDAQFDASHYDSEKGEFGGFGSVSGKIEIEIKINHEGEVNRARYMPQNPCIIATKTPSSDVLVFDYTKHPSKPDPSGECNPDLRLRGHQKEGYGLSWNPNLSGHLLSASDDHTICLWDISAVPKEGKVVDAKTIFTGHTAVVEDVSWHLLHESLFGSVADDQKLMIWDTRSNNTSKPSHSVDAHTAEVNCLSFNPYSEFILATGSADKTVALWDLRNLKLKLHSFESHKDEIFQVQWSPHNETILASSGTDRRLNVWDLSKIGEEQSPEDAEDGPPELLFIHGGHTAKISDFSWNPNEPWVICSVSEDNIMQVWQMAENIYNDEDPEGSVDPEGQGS
UniProt Q13422: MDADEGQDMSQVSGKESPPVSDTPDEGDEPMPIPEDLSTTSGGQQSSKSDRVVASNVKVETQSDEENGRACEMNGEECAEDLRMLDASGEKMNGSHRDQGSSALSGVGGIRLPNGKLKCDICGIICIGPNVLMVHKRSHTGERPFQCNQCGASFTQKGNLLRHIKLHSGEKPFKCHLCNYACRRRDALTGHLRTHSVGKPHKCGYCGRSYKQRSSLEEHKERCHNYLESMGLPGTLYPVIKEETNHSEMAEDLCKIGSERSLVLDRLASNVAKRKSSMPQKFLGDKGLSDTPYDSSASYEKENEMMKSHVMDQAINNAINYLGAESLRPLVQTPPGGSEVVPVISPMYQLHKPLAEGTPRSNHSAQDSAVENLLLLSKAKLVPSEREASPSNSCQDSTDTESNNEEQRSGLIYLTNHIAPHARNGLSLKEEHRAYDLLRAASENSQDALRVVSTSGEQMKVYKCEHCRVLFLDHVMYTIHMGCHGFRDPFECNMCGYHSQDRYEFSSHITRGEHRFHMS
UniProt Q9Y5B9: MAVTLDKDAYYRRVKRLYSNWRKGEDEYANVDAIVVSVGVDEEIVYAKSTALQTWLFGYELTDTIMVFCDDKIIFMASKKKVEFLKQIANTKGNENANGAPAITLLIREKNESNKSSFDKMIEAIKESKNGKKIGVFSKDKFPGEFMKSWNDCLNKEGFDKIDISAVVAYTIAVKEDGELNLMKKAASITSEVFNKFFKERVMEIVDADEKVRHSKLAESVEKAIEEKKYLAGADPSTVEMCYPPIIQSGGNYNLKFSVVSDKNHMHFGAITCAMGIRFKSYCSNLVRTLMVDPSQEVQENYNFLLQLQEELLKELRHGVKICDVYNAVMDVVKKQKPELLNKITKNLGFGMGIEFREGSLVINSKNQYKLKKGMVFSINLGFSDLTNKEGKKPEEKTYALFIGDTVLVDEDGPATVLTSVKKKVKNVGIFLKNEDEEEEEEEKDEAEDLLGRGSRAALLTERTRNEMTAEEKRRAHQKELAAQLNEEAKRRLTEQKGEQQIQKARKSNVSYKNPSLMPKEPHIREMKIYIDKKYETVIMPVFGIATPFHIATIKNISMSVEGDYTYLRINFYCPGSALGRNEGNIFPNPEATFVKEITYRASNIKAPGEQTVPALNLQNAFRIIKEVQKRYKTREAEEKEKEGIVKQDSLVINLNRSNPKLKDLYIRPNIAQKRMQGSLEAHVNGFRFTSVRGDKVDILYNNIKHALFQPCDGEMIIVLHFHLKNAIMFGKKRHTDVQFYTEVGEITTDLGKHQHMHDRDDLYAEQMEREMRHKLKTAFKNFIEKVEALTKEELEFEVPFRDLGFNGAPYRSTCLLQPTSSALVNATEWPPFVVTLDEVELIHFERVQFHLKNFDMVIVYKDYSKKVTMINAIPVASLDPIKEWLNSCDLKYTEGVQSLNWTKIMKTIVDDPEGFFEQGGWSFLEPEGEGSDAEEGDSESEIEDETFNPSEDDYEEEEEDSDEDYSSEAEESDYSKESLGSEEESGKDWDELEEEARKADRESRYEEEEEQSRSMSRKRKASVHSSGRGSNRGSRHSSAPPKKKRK
UniProt O60264: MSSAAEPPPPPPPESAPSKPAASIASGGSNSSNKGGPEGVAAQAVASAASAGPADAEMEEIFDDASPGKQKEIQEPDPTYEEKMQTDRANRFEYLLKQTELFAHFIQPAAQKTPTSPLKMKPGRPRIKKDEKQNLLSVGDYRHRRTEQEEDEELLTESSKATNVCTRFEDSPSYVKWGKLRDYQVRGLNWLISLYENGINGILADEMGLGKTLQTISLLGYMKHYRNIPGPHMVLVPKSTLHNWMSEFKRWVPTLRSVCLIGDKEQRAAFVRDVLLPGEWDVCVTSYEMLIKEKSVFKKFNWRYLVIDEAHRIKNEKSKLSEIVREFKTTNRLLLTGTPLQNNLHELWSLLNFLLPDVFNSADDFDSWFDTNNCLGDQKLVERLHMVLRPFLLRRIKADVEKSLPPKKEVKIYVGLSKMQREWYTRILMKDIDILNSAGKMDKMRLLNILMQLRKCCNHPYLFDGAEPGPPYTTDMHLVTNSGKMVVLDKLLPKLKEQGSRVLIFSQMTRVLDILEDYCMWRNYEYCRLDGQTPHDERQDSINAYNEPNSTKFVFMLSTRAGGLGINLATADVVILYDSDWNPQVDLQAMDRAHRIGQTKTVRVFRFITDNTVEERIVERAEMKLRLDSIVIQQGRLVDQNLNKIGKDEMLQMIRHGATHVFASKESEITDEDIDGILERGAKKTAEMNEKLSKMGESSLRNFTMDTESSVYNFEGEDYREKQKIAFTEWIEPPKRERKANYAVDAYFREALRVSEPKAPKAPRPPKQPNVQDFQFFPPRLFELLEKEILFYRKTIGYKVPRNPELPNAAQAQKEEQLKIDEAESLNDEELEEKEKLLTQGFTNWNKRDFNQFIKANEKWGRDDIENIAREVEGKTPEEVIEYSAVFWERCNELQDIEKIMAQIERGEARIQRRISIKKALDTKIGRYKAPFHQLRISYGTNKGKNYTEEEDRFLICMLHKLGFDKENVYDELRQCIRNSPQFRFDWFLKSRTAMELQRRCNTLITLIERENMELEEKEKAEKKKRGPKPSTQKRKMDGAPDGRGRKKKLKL

B1: SAP18 (protein, UniProt O00422 1-153)
chain: MAVESRVTQEEIKKEPEKPIDREKTCPLLLRVFTTNNGRHHRMDEFSRGNVPSSELQIYTWMDATLKELTSLVKEVYPEARKKGTHFNFAIVFTDVKRPGYRVKEIGSTMSGRKGTDDSMTLQSQKFQIGDYLDIAITPPNRAPPPSGRMRPY

Tests used:
[1] = biological target: GST-Tat (HIV-1 HXB2, 86 amino acids) (HIV-1 HXB2) (UniProt P04608); assay: pull-down; GST, GST-Tat or GST-Tat-NLS immobilised on glutathione-Sepharose; Jurkat nuclear extract (150 ug); washes in binding buffer with 300 mM, 500 mM, 800 mM or 1 M NaCl (GST-Tat-NLS: 300 mM); eluates by Western blot; only the target purified
[2] = biological target: GST-Tat (HIV-1 HXB2, 86 amino acids) (HIV-1 HXB2) (UniProt P04608); assay: as above; remark: listed apart in the source

| Molecule | binding [1] | binding [2] |
| --- | --- | --- |
| HDAC-1 (from UniProt Q13547 1-482) | binds |  |
| BAF53A (from UniProt O96019 1-429) | binds |  |
| RbAp48 (from UniProt Q09028 1-425) | binds |  |
| Ikaros (from UniProt Q13422 1-519) | binds |  |
| SPT16 (from UniProt Q9Y5B9 1-1047) | binds |  |
| SNF2H (from UniProt O60264 1-1052) | binds |  |
| B1 |  | binds |
